These are yes or no findings as the source states them, for the method shown. Some results given as binding are weak or reduced against the parent protein; the word gives no strength.

The assay addresses T1, ERCC1 (construct of the high throughput fluorescence polarization screen) (Homo sapiens (Human)) (UniProt P07992).
T1 sequence: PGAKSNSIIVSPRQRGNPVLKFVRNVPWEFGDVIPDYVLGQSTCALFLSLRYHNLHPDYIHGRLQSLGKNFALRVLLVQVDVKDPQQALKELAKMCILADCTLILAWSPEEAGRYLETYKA
Nature of the assay: fluorescence polarization binding assay used for small molecule screening.

Turning to KIIDTGGGFILEEE (labeled with 6-carboxyfluorescein (position not given)) [XPA 14mer peptide labeled with 6-carboxyfluorescein], the binding entry was “binds”.

For the origin of these results see patent publication US20100331233A1, “CRYSTAL OF XPA AND ERCC1 COMPLEX AND USES THEREOF” (priority 2007, published 2010).
